Measurements as given in US20050026068A1, “Polycarbocyclic derivatives for modification of resist, optical and etch resistance properties” (priority 2001, published 2005).

Assays:
[1] = Oxygen plasma etching rate of PMMA films, Reactive Ion Etcher; conditions: for ETCH RATE (Oxygen plasma etching rate): RIE, 10 mTorr, 400 W, DC bias 150V, 2 min, pure PMMA 3300
[2] = Etching of PMMA films in inductively coupled high density plasma reactor (O2 or SF6); conditions: PMMA loaded with additive; ICP 600 W, bias 100V, 10 mTorr
[3] = PMMA film loaded with additive, O2 plasma RIE, 120 sec

Row | SMILES | ETCH RATE (Oxygen plasma etching rate) ([1]; additive 7.5% w/w in PMMA) [Å/min] | ETCH RATE (Oxygen plasma etching rate) ([1]; additive 5% w/w in PMMA) [Å/min] | also measured
1 | O=C(O)CCC(=O)OC(Cc1c2ccccc2cc2ccccc12)Cc1c2ccccc2cc2ccccc12 [II, 1,3-di-(9-anthryl2-propyl hydrogen succinate] | 2850 |  | 
2 | c1ccc2cc3ccccc3cc2c1 [anthracene] |  | 3017 | 
3 | OCc1c2ccccc2cc2ccccc12 [9-anthracene methanol] |  | 3017 | 
4 | O=C(CCC(=O)OC(Cc1c2ccccc2cc2ccccc12)Cc1c2ccccc2cc2ccccc12)OCc1c2ccccc2cc2ccccc12 [IX, 1,3-Di-(9-anthryl)-2-propyl 9-anthrylmethyl Succinate] | 2850 |  | 
5 | O=C(O)c1c2ccccc2cc2ccccc12 [9-anthracene carboxylic acid] |  | 3017 | 
6 | O=C(CCC(=O)OC(Cc1c2ccccc2cc2ccccc12)Cc1c2ccccc2cc2ccccc12)OCC(COC(=O)CCC(=O)OC(Cc1c2ccccc2cc2ccccc12)Cc1c2ccccc2cc2ccccc12)Cc1c2ccccc2cc2ccccc12 [X, Penta-anthryl ester] | 2750 |  | 
7 | O=C(OCc1c2ccccc2cc2ccccc12)C12CC3CC(CC(C3)C1)C2 [XI, 1-adamantyl 9-anthrylmethylate] | 2600 |  | Etching Rates in O2 Plasma [2]: 3600 Å/min; Etching Rates in SF6 Plasma [2]: 2410 Å/min; Etching rates [1, 3]: 2.600 Å/min; Thickness after etching [1, 3]: 4.600 Å; Thickness differences [1, 3]: 5.200 Å
8 | O=C(OCc1c2ccccc2cc2ccccc12)c1c2ccccc2cc2ccccc12 [VII] | 2800 |  | 
9 | OC(Cc1c2ccccc2cc2ccccc12)Cc1c2ccccc2cc2ccccc12 [I] | 2700 |  | 
10 | CC(=O)C1CCC2C3CC=C4CC(OC(=O)c5c6ccccc6cc6ccccc56)CCC4(C)C3CCC12C (stereo not drawn) [Compound XIV, 5-pregnen-3β-yl-(9-anthryl-methylate)-20-one] | 2700 |  | 
11 | Nc1ccc2cc3ccccc3cc2c1 [2-aminoanthracene] |  | 2435 | 
12 | O=C(OCC(COC(=O)C12CC3CC(CC(C3)C1)C2)Cc1c2ccccc2cc2ccccc12)C12CC3CC(CC(C3)C1)C2 (stereo not drawn) [Compound XIII, Mixed anthryl ester] | 3100 |  | 
13 | O=C(OCCOc1c2ccccc2cc2ccccc12)OCCOc1c2ccccc2cc2ccccc12 [VI, Di-2-(9-anthryloxy)-ethyl carbonate] | 3067 |  | 
